The values below come from paper PMC7384856.

The chains behind the UniProt entries cited, without tags or fusion partners. Where a name states a change or a piece, a line headed by the entry shows the natural chain unless it says otherwise.
UniProt Q9W2N5: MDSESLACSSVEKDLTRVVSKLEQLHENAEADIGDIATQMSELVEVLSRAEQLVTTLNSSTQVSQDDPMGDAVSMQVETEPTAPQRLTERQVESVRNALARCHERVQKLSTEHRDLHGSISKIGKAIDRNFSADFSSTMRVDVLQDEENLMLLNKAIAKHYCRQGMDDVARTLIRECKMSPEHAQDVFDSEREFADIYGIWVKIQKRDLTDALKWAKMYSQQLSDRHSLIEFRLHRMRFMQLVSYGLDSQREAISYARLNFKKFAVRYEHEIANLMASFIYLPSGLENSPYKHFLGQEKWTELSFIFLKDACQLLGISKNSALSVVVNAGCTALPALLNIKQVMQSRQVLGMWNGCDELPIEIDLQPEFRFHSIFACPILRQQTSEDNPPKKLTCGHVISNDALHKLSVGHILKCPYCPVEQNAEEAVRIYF
UniProt Q9VWS1: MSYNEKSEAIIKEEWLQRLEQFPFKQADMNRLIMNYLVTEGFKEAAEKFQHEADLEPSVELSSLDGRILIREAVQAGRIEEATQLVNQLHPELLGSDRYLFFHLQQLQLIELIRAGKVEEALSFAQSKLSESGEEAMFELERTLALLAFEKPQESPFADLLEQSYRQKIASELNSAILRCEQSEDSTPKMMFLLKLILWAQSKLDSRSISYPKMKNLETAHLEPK

For assay [1], the target named is T1, Cup-GFP (D. melanogaster) (UniProt Q9VMA3).
T1 sequence: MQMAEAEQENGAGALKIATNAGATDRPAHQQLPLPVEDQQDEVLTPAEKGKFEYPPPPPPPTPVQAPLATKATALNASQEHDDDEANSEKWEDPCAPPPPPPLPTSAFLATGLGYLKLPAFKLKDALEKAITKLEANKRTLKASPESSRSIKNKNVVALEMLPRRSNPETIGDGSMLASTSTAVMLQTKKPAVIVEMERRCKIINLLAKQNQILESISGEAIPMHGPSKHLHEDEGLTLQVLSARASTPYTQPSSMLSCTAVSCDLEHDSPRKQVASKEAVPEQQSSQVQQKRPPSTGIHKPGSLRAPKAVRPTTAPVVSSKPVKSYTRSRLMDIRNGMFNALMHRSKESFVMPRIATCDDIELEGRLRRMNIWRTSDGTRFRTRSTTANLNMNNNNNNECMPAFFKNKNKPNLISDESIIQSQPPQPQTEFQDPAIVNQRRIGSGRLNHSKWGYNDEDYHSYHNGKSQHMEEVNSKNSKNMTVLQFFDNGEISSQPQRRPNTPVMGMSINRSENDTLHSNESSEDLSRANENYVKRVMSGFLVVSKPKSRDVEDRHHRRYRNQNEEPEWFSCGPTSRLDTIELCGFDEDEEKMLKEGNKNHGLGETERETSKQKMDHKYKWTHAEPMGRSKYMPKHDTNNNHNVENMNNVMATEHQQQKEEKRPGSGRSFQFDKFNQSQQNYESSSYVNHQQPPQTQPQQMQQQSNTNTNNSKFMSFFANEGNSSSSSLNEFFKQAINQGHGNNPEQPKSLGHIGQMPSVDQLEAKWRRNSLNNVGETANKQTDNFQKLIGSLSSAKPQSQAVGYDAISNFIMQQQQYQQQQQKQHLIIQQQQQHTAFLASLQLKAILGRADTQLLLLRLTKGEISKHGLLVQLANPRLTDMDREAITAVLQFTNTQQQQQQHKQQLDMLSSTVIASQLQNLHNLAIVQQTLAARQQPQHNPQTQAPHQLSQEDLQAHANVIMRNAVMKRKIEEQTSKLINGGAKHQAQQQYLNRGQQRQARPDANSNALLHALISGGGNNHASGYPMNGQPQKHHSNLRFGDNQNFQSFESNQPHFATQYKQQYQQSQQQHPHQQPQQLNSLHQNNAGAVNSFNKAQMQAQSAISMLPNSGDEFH
Briefly: affinity purification with mass spectrometry; α-GFP immunoprecipitation of ME31B-GFP or Cup-GFP from pre-MZT embryo lysates (1-2 and 2-3 hr after egg laying) in conditions that maintain complex formation; control IgG immunoprecipitation; LC/MS/MS, spectral counts.

The target in assay [2] is T2, ME31B-GFP (D. melanogaster) (UniProt P23128).
T2 sequence: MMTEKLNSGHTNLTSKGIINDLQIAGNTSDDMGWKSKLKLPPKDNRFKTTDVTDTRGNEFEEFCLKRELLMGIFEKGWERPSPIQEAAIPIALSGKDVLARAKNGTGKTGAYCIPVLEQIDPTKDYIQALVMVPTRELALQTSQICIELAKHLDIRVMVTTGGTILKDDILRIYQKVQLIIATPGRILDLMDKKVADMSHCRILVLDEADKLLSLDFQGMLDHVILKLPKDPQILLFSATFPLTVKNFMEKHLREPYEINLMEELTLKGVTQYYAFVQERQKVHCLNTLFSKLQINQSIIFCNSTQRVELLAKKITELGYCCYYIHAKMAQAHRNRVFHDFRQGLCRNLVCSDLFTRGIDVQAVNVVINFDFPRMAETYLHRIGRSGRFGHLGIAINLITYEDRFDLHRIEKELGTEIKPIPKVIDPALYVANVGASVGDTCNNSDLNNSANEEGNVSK
Described as above.

These are yes or no findings as the source states them, for the method shown. In cells and extracts the contact can be indirect. These calls come from enrichment with a bait or labelling near it, and not all partners need be listed. A no says only that the protein was not detected with the bait. Sequences can lack the tags named with a protein.

On to CG3295 (from UniProt Q9W2N5), for which the binding entry in assay [1] and in assay [2] was “binds” throughout.

Regarding “Muskelin (D. melanogaster (endogenous in embryos))”, the binding entry in assay [1] and in assay [2] was “binds” throughout.

For CG6617 (from UniProt Q9VWS1), the binding result in assay [1] and in assay [2] was “binds” throughout.

B1: ME31B (protein, UniProt P23128 1-459)
chain: MMTEKLNSGHTNLTSKGIINDLQIAGNTSDDMGWKSKLKLPPKDNRFKTTDVTDTRGNEFEEFCLKRELLMGIFEKGWERPSPIQEAAIPIALSGKDVLARAKNGTGKTGAYCIPVLEQIDPTKDYIQALVMVPTRELALQTSQICIELAKHLDIRVMVTTGGTILKDDILRIYQKVQLIIATPGRILDLMDKKVADMSHCRILVLDEADKLLSLDFQGMLDHVILKLPKDPQILLFSATFPLTVKNFMEKHLREPYEINLMEELTLKGVTQYYAFVQERQKVHCLNTLFSKLQINQSIIFCNSTQRVELLAKKITELGYCCYYIHAKMAQAHRNRVFHDFRQGLCRNLVCSDLFTRGIDVQAVNVVINFDFPRMAETYLHRIGRSGRFGHLGIAINLITYEDRFDLHRIEKELGTEIKPIPKVIDPALYVANVGASVGDTCNNSDLNNSANEEGNVSK
Consider B1, for which, in assay [1], the binding entry was “binds”.

B2: Cup (protein, UniProt Q9VMA3 1-1117)
chain: MQMAEAEQENGAGALKIATNAGATDRPAHQQLPLPVEDQQDEVLTPAEKGKFEYPPPPPPPTPVQAPLATKATALNASQEHDDDEANSEKWEDPCAPPPPPPLPTSAFLATGLGYLKLPAFKLKDALEKAITKLEANKRTLKASPESSRSIKNKNVVALEMLPRRSNPETIGDGSMLASTSTAVMLQTKKPAVIVEMERRCKIINLLAKQNQILESISGEAIPMHGPSKHLHEDEGLTLQVLSARASTPYTQPSSMLSCTAVSCDLEHDSPRKQVASKEAVPEQQSSQVQQKRPPSTGIHKPGSLRAPKAVRPTTAPVVSSKPVKSYTRSRLMDIRNGMFNALMHRSKESFVMPRIATCDDIELEGRLRRMNIWRTSDGTRFRTRSTTANLNMNNNNNNECMPAFFKNKNKPNLISDESIIQSQPPQPQTEFQDPAIVNQRRIGSGRLNHSKWGYNDEDYHSYHNGKSQHMEEVNSKNSKNMTVLQFFDNGEISSQPQRRPNTPVMGMSINRSENDTLHSNESSEDLSRANENYVKRVMSGFLVVSKPKSRDVEDRHHRRYRNQNEEPEWFSCGPTSRLDTIELCGFDEDEEKMLKEGNKNHGLGETERETSKQKMDHKYKWTHAEPMGRSKYMPKHDTNNNHNVENMNNVMATEHQQQKEEKRPGSGRSFQFDKFNQSQQNYESSSYVNHQQPPQTQPQQMQQQSNTNTNNSKFMSFFANEGNSSSSSLNEFFKQAINQGHGNNPEQPKSLGHIGQMPSVDQLEAKWRRNSLNNVGETANKQTDNFQKLIGSLSSAKPQSQAVGYDAISNFIMQQQQYQQQQQKQHLIIQQQQQHTAFLASLQLKAILGRADTQLLLLRLTKGEISKHGLLVQLANPRLTDMDREAITAVLQFTNTQQQQQQHKQQLDMLSSTVIASQLQNLHNLAIVQQTLAARQQPQHNPQTQAPHQLSQEDLQAHANVIMRNAVMKRKIEEQTSKLINGGAKHQAQQQYLNRGQQRQARPDANSNALLHALISGGGNNHASGYPMNGQPQKHHSNLRFGDNQNFQSFESNQPHFATQYKQQYQQSQQQHPHQQPQQLNSLHQNNAGAVNSFNKAQMQAQSAISMLPNSGDEFH
With B2, the binding entry in assay [2] is listed as “binds”.

B3: RanBPM (protein, UniProt Q4Z8K6 1-962)
chain: MENVEEAPPLSSESNSNSNNSSASSSSHQLSQSGAMGAEIAPSTSRSHSHSPTPSPPVPASSHDQPHPDHPSPPLNASETEARENSPHDHSPTPTFHQTAPPPTTSSTAPQRDEREQQQQQEAPPLQQDQQENSPAQDQELHPLLDQQNQEYPAVHQDQQAEQNQELHHIEGLIRHRESQNPEEHPPQASLENRETLGREDTNQEPDEPQVRDPEIEPEAEPPPPLLLEDLDEQDSGSQDLNEQQPPLIIDANAIAETIDANAVERIDDYEDDDEEVDEEEEVVEDRVDRAGEVASVSGAQRLHSVAVLPRYSSASRAPRSSNNNNNNISNHNNNNNNSNSNSLSRRTRHFYSNNGSHFSNDMFPSHNPRSSTQTSSPRVGGRRHHSTPAASSNSPQHQGVDPLRLLYPNVNESETPLPRCWSPHDKCLSIGLSQNNLRVTYKGVGKQHSDAASVRTAYPIPSSCGLYYFEVRIISKGRNGYMGIGLTAQQFRMNRLPGWDKQSYGYHGDDGNSFSSSGNGQTYGPTFTTGDVIGCCVNFVNNTCFYTKNGVDLGIAFRDLPTKLYPTVGLQTPGEEVDANFGQEPFKFDKIVDMMKEMRSNVLRKIDRYPHLLETPENLMNRLVSTYLVHNAFSKTAEAFNGYTNQTFNEDLASIKTRQKIIKLILTGKMSQAIEHTLRSFPGLLENNKNLWFALKCRQFIEMINGADIENVNNKVTATTQTMPTNQTSVIQSTKTFKHSKSGSGNGNVNINQTQQQNNTAIPAVIKPQGGDRPDIKNMLVDDNSNKCVEHDSNSMDVEMEPCQSHSNGGDSSSNGNASAVRNSLDAIDEEMDVDVSPSSRNCGRVIEKILEFGKELSSMGQQLEKENLMTEEERQMLEDAFSLIAYSNPWSSPLGWLLCPSRRESVSTTLNSAILESLNFERRPPLEYLVAHASELIKVIGQHSLGEDAFITIDDVFPQN
Consider B3, for which, in assay [1], the binding entry is “binds”.

B4: CG7611 (protein, UniProt Q7K0L4 1-630)
chain: MQSTSSTSSGSCSRPLEGSTLNSGGSAENVARDGGSGDDSVGIGDENPSGSSAATNGHDSKHNGFIVNNNGSSSRIVDGENNRENTSCSGVQLDKSNQEIIRLIGQYLHDVGLDKSVQTLMLESGCYLEHPSATKFREHVLMGDWSKADSDLKDLEPLIDNGKLATITEMKFILLEQKYLEHLDDGNPLDALHVLRSELTPLQHNITRVHQLSSYMMCSTNQDLYQRAKWEGKGILSRALVMERLQTFMPPSVMMSPRRLRTLLQQAVELQSQHCPCHDMAWETNLETVSLLTDHCCTTDGFPMQTIQILTDHCDEVWFCKFSPDGLKLATGSKDSTVIIWDVDPYKLTLKHRRVLDGQAQLSVSFVSWSPDSKLILVGGTEDSHELYIWNVDDGKLVVKFSQSLEDSLACGAFSRDGARFVCGGQKGQLYLCDLNGTIVDSWEGVRVNSIAFRADNKTILAADNHYRIRGYNFDSPRSDFDILREPHPIMTFSINSADRLALLNVSNQGLHLWDIEDKCLVRRFQGIRQSNFAIHSCFGGVNESFVASGSEDKVVYIWHIKREEPLAKLAGHTKTVNCVSWNPVYPSLLASASDDATVRIWGPKPNGSSATTESDDCSSSSSSSSWNMT
With B4, the binding entry in assay [1] and in assay [2] was “no binding” in each case.
